Assay results published in patent US20020061569A1, “Identification of essential genes in prokaryotes” (priority 2000, published 2002).
“Also recorded” adds a separate entry of the source. At least one compound was matched to its structure with a doubt left.

Test system: E. coli transformed with IPTG-inducible antisense clones
Assay: Cell-based assay using antisense to genes encoding ribosomal proteins (Example 9)
Description: First, pLex5BA (Krause et al., J. Mol. Biol. 274: 365 (1997), the disclosure of which is incorporated herein by reference in its entirety) vectors containing antisense constructs to either rplW or to elaD were introduced into separate E. coli cell populations. Vector introduction is a technique well known to those of ordinary skill in the art. The vectors of this example contain IPTG inducible promoters that drive the transcription of the antisense RNA in the presence of the inducer. However, those skilled in the art will appreciate that other inducible promoters may also be used. Suitable vectors are also well known in the art. Antisense clones to genes encoding different ribosomal proteins or to genes encoding proteins that are not involved in protein synthesis were utilized to test the effect of antisense transcription on cell sensitivity to the antibiotics known to bind to ribosomal proteins and inhibit protein synthesis. Antisense nucleic acids comprising a nucleotide sequence complementarty to the elaD, atpB&atpE, visC and yohH genes are referred to as AS-elaD, AS-atpB/E, AS-visC, AS-yohH respectively. These genes are not known to be involved in protein synthesis. […]
The cell populations containing vectors producing AS-elaD or AS-rplW were exposed to a range of IPTG concentrations in liquid medium to obtain the growth inhibitory dose curve for each clone (FIG. 1). First, seed cultures were grown to a particular turbidity measured by the optical density (OD) of the growth solution. […] The cells were grown for up to 15 hours and the extent of growth was determined by measuring the optical density of the cultures at 600 nm. […]
An example of a tetracycline dose response curve is shown in FIGS. 2A and 2B for the rplW and elaD genes, respectively. Cells were grown to log phase and then diluted into medium alone or medium containing IPTG at concentrations which give 20% and 50% growth inhibition as determined by IPTG dose response curves. […] The 96 well plates were incubated at 37° C. and the OD600 was read by a plate reader every 5 minutes for up to 15 hours. […]

SMILES | sensitivity of the clone transcribing antisense to rplL and rplJ (AS-rplL/J) (antibiotics which do not inhibit protein synthesis) | sensitivity of cells transcribing antisense to genes not involved in protein synthesis (AS-atpB/E, AS-visC, AS-elaD, AS-yohH) | sensitivity of cells transcribing antisense to protein synthesis genes (AS-rplL, AS-rplW, clones to L7/L12, L10, L22, L18, rRNA, Elongation Factor G, with vs without IPTG)
CC1COc2c(N3CCN(C)CC3)c(F)cc3c(=O)c(C(=O)O)cn1c23 (stereo not drawn) [Ofloxacin] | does not show increased sensitivity |  | 
CN(C)[C@@H]1C(O)=C(C(N)=O)C(=O)[C@@]2(O)C(O)=C3C(=O)c4c(O)cccc4[C@@](C)(O)[C@H]3C[C@@H]12 [Tetracycline] |  | much less sensitive; also recorded: did not show the same increased sensitivity | increased sensitivity
